These are yes or no findings as the source states them, for the method shown. Binding calls can cover weak binding; strength is not graded here. Where a sequence is shown, tags or fusion partners need not be part of it.

Consider 2 molecules from article PMC7349982.

Assay [1] deals with T1, SpoIIE (bacterial two-hybrid fusion) (Bacillus subtilis) (UniProt P37475).
T1 sequence: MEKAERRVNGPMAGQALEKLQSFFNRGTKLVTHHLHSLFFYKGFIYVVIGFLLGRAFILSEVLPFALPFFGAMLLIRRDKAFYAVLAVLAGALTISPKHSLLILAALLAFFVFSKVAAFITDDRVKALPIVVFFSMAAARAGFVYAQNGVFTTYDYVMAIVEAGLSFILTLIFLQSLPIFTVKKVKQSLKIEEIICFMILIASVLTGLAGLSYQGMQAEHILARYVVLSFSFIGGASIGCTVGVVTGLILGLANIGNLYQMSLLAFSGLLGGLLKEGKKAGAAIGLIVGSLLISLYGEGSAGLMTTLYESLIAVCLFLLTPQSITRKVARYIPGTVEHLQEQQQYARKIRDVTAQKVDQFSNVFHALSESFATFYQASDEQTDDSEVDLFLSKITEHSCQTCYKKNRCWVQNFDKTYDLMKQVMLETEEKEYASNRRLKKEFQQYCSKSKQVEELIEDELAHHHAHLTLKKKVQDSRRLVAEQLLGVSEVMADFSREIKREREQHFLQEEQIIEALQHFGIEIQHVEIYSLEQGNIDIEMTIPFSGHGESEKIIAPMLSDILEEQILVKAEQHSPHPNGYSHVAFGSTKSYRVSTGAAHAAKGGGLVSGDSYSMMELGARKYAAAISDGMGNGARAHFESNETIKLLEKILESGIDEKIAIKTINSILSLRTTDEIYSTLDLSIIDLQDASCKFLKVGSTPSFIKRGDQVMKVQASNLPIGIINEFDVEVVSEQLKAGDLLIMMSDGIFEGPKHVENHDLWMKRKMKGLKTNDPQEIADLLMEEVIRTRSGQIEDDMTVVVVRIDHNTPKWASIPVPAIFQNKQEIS
Kind of assay: two-hybrid; bacterial two-hybrid (BACTH): fusions to adenylate cyclase fragments T18 and T25 co-transformed into E. coli BTH101 (Δcya); spotted on LB plates with X-Gal and 0.5 mM IPTG, 24-48 h at 30 °C; blue colour and β-galactosidase activity (Miller units).

Assay [2] deals with SpoIIE domains I+II (bacterial two-hybrid fusion) (Bacillus subtilis). Described as above.

Turning to “RodZ (bacterial two-hybrid fusion) (Bacillus subtilis)”, the binding entry in assay [1] is listed as “binds”.

B1: GpsB (bacterial two-hybrid fusion) (protein, UniProt P0CI74 1-98)
chain: MLADKVKLSAKEILEKEFKTGVRGYKQEDVDKFLDMIIKDYETFHQEIEELQQENLQLKKQLEEASKKQPVQSNTTNFDILKRLSNLEKHVFGSKLYD
As for B1, in assay [2], the binding result is recorded as “binds weakly”.
